Measured values published in paper PMC8809903.
Results are given in words; binding and its absence hold for the method and conditions named. In cells and extracts the contact can be indirect. Binding can be weak; no strength is given.

The chains behind the UniProt entries cited, without tags or fusion partners. Where a name states a change or a piece, a line headed by the entry shows the natural chain unless it says otherwise.
UniProt Q16651: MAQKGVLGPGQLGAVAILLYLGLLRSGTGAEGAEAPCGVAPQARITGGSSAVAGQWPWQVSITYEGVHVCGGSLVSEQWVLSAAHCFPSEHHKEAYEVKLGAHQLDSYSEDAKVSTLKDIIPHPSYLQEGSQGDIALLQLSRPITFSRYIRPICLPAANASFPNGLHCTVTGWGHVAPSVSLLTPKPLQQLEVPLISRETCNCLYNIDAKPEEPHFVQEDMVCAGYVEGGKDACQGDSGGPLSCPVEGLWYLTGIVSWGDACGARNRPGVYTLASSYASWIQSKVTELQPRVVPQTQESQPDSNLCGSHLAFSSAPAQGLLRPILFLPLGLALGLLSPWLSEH

Molecular target: Serine Protease 8 (PRSS8) (human (endogenous in the human ovarian cell lines used)) (UniProt Q16651)
Experiment: co-IP; cell lysate with 1 ug of the corresponding antibody overnight at 4 C, protein A agarose beads 2-4 h at 4 C, western blot; immunoprecipitation of PRSS8 and of SCNN1A

binding: binds
B1: sodium channel epithelial 1alpha subunit (SCNN1A) (protein, UniProt P37088 1-669)
chain: MEGNKLEEQDSSPPQSTPGLMKGNKREEQGLGPEPAAPQQPTAEEEALIEFHRSYRELFEFFCNNTTIHGAIRLVCSQHNRMKTAFWAVLWLCTFGMMYWQFGLLFGEYFSYPVSLNINLNSDKLVFPAVTICTLNPYRYPEIKEELEELDRITEQTLFDLYKYSSFTTLVAGSRSRRDLRGTLPHPLQRLRVPPPPHGARRARSVASSLRDNNPQVDWKDWKIGFQLCNQNKSDCFYQTYSSGVDAVREWYRFHYINILSRLPETLPSLEEDTLGNFIFACRFNQVSCNQANYSHFHHPMYGNCYTFNDKNNSNLWMSSMPGINNGLSLMLRAEQNDFIPLLSTVTGARVMVHGQDEPAFMDDGGFNLRPGVETSISMRKETLDRLGGDYGDCTKNGSDVPVENLYPSKYTQQVCIHSCFQESMIKECGCAYIFYPRPQNVEYCDYRKHSSWGYCYYKLQVDFSSDHLGCFTKCRKPCSVTSYQLSAGYSRWPSVTSQEWVFQMLSRQNNYTVNNKRNGVAKVNIFFKELNYKTNSESPSVTMVTLLSNLGSQWSLWFGSSVLSVVEMAELVFDLLVIMFLMLLRRFRSRYWSPGRGGRGAQEVASTLASSPPSHFCPHPMSLSLSQPGPAPSPALTAPPPAYATLGPRPSPGGSAGASSSTCPLGGP
